PMC10449902
No constants are given. Whether binding was seen depends on the method and setting. Binding seen in cells or lysates may run through a third protein. A result given as binding can be weak or reduced; the word gives no strength.

molecular target: T1, rpmC (Pseudomonas aeruginosa (endogenous in strain PAO1)) (UniProt Q9HWE3); test: cross-linking; XL-MS: pooled SEC fractions F33–F38 (70S ribosome peak) of ϕKZ-infected PAO1 lysate, cross-linked 1 h at RT with 5 mM DSSO; link FDR 5%
T1 sequence: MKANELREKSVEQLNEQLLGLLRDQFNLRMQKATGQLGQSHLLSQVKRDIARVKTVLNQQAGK

Substance | binding
PHIKZ108 (Pseudomonas phage ϕKZ) | binds
PHIKZ175 (Pseudomonas phage ϕKZ) | binds
PHIKZ285 (Pseudomonas phage ϕKZ) | binds
